Results are given in words; binding and its absence hold for the method and conditions named. Some results given as binding are weak or reduced against the parent protein; the word gives no strength.
Target: T1, human NPR-C (human) (UniProt P17342)
T1 sequence (looked up): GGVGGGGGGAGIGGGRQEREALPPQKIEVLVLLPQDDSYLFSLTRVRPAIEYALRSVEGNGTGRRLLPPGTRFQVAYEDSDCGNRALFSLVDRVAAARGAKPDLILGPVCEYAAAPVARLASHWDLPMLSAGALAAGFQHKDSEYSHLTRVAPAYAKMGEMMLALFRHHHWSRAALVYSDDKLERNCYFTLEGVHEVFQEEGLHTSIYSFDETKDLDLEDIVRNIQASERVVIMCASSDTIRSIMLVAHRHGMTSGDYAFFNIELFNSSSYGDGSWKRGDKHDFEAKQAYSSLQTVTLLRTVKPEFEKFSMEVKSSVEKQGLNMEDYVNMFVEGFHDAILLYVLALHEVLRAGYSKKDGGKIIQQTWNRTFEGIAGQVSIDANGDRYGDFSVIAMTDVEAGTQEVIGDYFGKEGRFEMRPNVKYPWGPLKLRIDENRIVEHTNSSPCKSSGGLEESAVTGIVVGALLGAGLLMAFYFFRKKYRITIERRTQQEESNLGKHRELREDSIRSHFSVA
Experiment: receptor binding assay, methods similar to Fan et al. 2005

Chains of the proteins cited; added tags and fusions are not shown. Residues count along the entry.
UniProt P16860, residues 103-134: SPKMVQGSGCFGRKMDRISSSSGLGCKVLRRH

binding: binds
Substance: human BNP (from UniProt P16860 103-134) (peptide)

From patent publication US20100311660A1
